Tests used:
[1] = general procedure: hybrid (solid and solution phase) peptide synthesis; Fmoc-Sar-Sasrin resin (substitution 0.7 mmol/g); IBCF/NMM mixed anhydride (solution); DIC/HOBt (solid phase); DPPA for cyclisatio; conditions: TFA salt; for final HPLC purity: 216/280 nm
peptide synthesis = conditions: coupling step, TFA salt

With Boc-Tyr(NMe)-c[-D-Orn-2-Nal-D-Pro-Gly-] the “final HPLC purity” value ([1]; cyclisation step, HPLC system II) was 95% purity, the “final HPLC purity” value ([1]; cyclisation step, HPLC system IIa) was 96% purity and the cyclisation yield ([1]; cyclisation step) was 78%.

For Tyr(NMe)-c[-DOrn-2-Nal-D-Pro-Gly-], the “final HPLC purity” value ([1]; late stage modification step, HPLC system I) was 97% purity and the step yield ([1]; late stage modification step) was 90%.

“Boc-Tyr(NMe,Bzl)D-Orn(Z)-2-Nal-D-Pro-Gly-ONb” showed a step yield (peptide synthesis) of 85%.

With H-Tyr-c[-D-Orn-2-Nal-D-Pro-Sar-] the “final HPLC purity” value ([1]; whole synthesis, HPLC system I, scale of the general procedure 0.3 g resin) was 97% purity.

Substance Boc-Tyr(NMe)-D-Orn-2-Nal-D-Pro-Gly-OH has a step yield ([1]; late stage modification step) of 74%.

In the case of Boc-D-Orn(Z)-2-Nal-D-Pro-Gly-ONb, the step yield (peptide synthesis) is reported as 80%.
